Measurements from PubChem BioAssay AID2662 (National Center for Advancing Translational Sciences (NCATS), 2010).
The campaign covered roughly 290,000 compounds. About 110 (0.038%) were called active. The inconclusive results got no clear call from the source; some entries with a clear call stand among them for comparison. Calls follow the shape of the dose curve; as a rule, active = well fitted inhibition curve with a large enough effect in the polarisation, with a control signal flat (not every such curve was filed as active); inconclusive = small, poorly fitted or top-dose-only effect, or effect the other way, or a change in a side signal; inactive = no such curve, though single readings can be large or run the other way; the % refers to the polarisation. Where the call is inconclusive, the potency comes from a doubtful curve fit. “Side channel” marks fits to a control or component signal instead of the main read-out.

By UniProt entry, the sequences of proteins in these tests, tags left out.
UniProt Q03164, whole entry, looked up: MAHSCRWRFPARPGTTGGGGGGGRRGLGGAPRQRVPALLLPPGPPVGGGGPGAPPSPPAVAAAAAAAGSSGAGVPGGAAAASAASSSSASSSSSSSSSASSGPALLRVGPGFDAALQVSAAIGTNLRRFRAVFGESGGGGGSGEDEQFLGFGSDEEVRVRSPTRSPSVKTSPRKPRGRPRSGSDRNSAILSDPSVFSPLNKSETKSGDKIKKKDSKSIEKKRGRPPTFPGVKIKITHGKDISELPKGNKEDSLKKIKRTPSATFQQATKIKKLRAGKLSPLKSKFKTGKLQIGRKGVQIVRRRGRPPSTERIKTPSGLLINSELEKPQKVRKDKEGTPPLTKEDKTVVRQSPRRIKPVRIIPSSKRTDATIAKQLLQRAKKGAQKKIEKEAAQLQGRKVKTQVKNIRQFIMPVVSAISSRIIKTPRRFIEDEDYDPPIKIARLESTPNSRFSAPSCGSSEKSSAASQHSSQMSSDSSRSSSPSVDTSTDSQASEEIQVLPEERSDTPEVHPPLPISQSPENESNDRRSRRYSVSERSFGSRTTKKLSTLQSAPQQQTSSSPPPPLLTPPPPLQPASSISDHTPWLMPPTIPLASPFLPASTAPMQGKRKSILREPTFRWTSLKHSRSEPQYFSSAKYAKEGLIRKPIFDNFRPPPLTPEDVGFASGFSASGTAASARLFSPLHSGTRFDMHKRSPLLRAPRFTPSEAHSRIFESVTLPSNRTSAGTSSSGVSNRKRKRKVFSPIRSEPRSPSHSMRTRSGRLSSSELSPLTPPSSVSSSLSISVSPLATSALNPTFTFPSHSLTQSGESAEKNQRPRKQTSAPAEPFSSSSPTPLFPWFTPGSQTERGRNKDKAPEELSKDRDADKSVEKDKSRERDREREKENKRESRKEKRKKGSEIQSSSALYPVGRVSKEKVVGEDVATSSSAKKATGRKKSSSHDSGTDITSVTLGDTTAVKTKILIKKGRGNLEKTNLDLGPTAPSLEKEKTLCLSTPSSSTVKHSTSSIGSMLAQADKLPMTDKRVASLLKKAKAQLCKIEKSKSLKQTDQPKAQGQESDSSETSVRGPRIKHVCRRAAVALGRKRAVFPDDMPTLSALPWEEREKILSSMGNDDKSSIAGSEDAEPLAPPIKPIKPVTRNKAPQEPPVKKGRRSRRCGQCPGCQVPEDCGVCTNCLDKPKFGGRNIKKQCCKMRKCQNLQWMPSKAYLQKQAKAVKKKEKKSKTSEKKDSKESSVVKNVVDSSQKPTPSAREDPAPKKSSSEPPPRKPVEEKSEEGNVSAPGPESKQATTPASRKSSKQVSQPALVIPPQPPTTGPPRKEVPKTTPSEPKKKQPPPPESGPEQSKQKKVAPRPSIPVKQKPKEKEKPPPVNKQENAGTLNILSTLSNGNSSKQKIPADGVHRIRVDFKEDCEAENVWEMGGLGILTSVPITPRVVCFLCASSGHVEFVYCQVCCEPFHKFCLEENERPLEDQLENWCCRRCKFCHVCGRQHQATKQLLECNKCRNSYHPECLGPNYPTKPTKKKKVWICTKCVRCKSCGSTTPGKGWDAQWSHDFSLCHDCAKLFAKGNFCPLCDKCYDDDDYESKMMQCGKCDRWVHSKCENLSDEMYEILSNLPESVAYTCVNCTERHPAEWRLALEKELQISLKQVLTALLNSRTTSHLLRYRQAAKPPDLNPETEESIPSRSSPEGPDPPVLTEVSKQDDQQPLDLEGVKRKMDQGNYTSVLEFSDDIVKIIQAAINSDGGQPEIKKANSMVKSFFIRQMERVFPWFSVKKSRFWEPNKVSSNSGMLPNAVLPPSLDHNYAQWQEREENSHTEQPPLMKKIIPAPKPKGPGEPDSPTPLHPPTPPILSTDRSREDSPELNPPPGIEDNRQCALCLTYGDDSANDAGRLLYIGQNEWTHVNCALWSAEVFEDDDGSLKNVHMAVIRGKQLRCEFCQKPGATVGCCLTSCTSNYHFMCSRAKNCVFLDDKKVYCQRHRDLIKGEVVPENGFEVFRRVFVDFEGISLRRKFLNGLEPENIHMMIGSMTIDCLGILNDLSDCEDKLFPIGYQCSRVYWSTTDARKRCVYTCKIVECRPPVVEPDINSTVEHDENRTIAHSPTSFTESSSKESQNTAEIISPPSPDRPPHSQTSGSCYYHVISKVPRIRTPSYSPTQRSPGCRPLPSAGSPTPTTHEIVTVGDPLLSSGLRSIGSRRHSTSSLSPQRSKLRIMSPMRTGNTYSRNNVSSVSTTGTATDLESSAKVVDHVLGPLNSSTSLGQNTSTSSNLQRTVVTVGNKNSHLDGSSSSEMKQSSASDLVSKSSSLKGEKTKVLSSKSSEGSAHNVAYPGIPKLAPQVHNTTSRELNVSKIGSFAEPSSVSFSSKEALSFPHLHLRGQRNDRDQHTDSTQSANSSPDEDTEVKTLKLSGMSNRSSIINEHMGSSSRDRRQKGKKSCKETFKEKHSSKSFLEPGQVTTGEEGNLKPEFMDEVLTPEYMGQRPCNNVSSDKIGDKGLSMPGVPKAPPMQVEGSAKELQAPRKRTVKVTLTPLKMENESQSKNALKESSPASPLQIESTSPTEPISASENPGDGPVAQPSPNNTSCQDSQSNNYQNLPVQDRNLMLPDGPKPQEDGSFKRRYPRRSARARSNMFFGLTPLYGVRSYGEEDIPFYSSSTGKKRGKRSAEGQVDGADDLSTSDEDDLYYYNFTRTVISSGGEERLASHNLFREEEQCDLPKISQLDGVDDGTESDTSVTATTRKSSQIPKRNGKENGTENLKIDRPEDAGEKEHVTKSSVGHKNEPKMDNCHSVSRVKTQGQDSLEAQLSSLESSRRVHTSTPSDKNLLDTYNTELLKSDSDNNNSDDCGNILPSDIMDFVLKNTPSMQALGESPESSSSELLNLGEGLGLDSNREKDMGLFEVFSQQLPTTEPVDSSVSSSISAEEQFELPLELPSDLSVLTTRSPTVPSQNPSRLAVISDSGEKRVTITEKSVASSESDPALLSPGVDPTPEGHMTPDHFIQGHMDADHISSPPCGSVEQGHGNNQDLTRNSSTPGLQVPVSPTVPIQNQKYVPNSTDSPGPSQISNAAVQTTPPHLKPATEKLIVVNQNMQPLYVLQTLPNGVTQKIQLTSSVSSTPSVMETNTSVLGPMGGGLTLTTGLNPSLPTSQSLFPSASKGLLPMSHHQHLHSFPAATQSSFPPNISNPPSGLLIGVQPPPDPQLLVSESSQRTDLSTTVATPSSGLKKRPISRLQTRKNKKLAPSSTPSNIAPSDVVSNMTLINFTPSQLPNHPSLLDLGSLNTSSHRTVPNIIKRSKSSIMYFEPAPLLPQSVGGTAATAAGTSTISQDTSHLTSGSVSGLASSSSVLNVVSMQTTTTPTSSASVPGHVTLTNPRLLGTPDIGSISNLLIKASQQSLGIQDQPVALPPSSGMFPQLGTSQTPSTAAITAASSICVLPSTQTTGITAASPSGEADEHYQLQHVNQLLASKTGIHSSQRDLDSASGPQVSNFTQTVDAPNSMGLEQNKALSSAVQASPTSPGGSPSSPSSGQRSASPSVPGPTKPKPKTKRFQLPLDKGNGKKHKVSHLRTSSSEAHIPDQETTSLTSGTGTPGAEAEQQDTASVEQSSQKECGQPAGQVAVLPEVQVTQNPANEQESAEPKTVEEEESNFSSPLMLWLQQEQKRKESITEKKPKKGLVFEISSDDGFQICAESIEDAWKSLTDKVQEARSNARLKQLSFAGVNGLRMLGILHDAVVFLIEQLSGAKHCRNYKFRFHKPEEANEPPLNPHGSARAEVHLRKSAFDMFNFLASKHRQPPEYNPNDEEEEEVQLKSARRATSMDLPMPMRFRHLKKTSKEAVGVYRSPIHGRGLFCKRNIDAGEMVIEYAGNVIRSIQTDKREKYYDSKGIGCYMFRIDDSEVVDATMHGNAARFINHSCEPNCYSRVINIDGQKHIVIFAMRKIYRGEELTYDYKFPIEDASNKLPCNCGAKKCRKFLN

biological target: Histone-lysine N-methyltransferase 2A (Homo sapiens) (UniProt Q03164); assay: qHTS Fluorescence Polarization Assay for Inhibitors of MLL CXXC domain - DNA interaction; conditions: MLL-CXXC / FITC-HOXA9 DNA fluorescence polarization; activity change, negative = inhibition: at 115 µM (top of the series)
Method in brief: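 Steps: dispense CXXC domain solution (7 uM) → pin compounds or unlabeled HOX-A9 DNA control → 5 min ambient → add FLSN-HOX-A9 solution (50 nM) → spin → 30 min ambient → fluorescence polarization. Tris pH 7.5/NaCl/DTT/BSA buffer.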
Potency is read from the fitted curve at half-maximal effect.

Structure (SMILES)	Potency	activity change, negative = inhibition
O=C1C(Cl)=C(NCc2cccnc2)C(=O)c2ccccc21	inconclusive: 8.91 µM [fluorescent, side channel, single point]	
O=C(CSCc1ccc(F)cc1)Nc1ccc(F)cc1	inconclusive: 56.2 µM [inhibitor, single point]	
O=C1c2ccccc2C(=O)C1c1ccccn1	inconclusive: 15.8 µM [quencher, side channel, partial curve]	
CON/C=C(\C=Nc1ccc(F)cc1)c1ncc(C(F)(F)F)cc1Cl	inconclusive: 10 µM [quencher, side channel, single point]	
Cc1cc(-c2ccccc2)c2c3c(cn2n1)c(=O)n(C)c(=O)n3C		inactive: 3%
COC(=O)C(NC(=O)c1ccc(F)cc1)(Nc1ncc(S(=O)(=O)c2ccc([N+](=O)[O-])cc2)s1)C(F)(F)F (stereo unspecified)		inactive: -1.27%
CN(N=Nc1ccc([N+](=O)[O-])cc1)c1ccccc1	inconclusive: 35.5 µM [fluorescent, partial curve]	
Cc1nc(-c2ccc([N+](=O)[O-])cc2)c(-c2ccccc2)o1	inconclusive: 31.6 µM [inhibitor, single point]	
CCCCCc1ccc(OCCC[n+]2ccccc2)c(CCCCC)c1		inactive: -2.19%
Cc1cccc(-c2nnc(-c3ccccc3)o2)c1		inactive: -5.19%
Cc1ccc(-c2c[n+](Cc3cccc(Cl)c3)c3n2CCC3)cc1		inactive: 4.74%
O=C(O)CCCCCn1c(SCC(=O)c2ccc(O)c(O)c2)nc2ccsc2c1=O		inactive: 7.34%
COCCNC(=O)/C(C#N)=C/c1ccc2c(c1)OCO2	inconclusive: 12.6 µM [inhibitor, full curve]	
COc1cc(C(=O)Nc2scc(-c3ccccc3)c2C(=O)O)cc(OC)c1OC	inconclusive: 12.6 µM [inhibitor, full curve, poor fit]	
C[N+]1(CN2C(=O)C3C4C=CC(C4)C3C2=O)CCCCC1 (stereo unspecified)	inconclusive: 8.91 µM [inhibitor, partial curve]	
CCN1C(=O)/C(=C/N2CCc3ccccc32)SC1=S	inconclusive: 31.6 µM [fluorescent, side channel, partial curve]	
C=CCOC(=O)C(=O)/C=C/c1csc2ccccc12	inconclusive: 20 µM [inhibitor, partial curve]	
COC(=O)C(c1ccccc1)C(C(=O)OC)c1ccccc1 (stereo unspecified)	inconclusive: 1.58 µM [inhibitor, full curve, poor fit]	
CC(C)CC(=O)N1CCN(S(=O)(=O)c2ccccc2)CC1	inconclusive: 7.94 µM [fluorescent, side channel, full curve, poor fit]	
Cc1ccc(NC(=O)CSCC(=O)NC2CCCCC2)cc1	inconclusive: 8.91 µM [fluorescent, side channel, single point]	
COc1cc(C)c(Cl)cc1S(=O)(=O)N1CCCC1	inconclusive: 8.91 µM [quencher, side channel, single point]	

Structure (SMILES)	Potency	activity change, negative = inhibition
CCCCCCCCCCCCCCCC[n+]1cccc2ccccc21	inconclusive: 39.8 µM [quencher, side channel, partial curve]	
O=C(NC1CCN(Cc2ccccc2)CC1)c1cccc(OC(F)F)c1	inconclusive: 70.8 µM [fluorescent, side channel, single point]	
O=c1[nH]c(=S)[nH]c2nc(-c3cccs3)cc(C(F)(F)F)c12	inconclusive: 31.6 µM [fluorescent, side channel, partial curve]	
COC(=O)c1cc(N2CCN(C)CC2)nc2ccccc12	inconclusive: 10 µM [fluorescent, side channel, partial curve]	
CC(O)CNc1nc2c(c(=O)n(Cc3ccc(Cl)c(Cl)c3)c(=O)n2C)n1C (stereo unspecified)		inactive: -0.987%
COCCCn1c(=NC(=O)c2ccncc2)c(C#N)cc2c(=O)n3cccc(C)c3nc21	inconclusive: 31.6 µM [inhibitor, single point]	
CCOc1cc(/C=N/NC(=O)c2ccncc2)ccc1OC(=O)c1ccccc1	inconclusive: 15.8 µM [fluorescent, side channel, single point]	
O=C(CSc1ccccc1)N1CCN(S(=O)(=O)c2cccs2)CC1		inactive: 24.3%
COc1cc(OC)cc(C(=O)OCC(=O)NCCCc2ccccc2)c1	inconclusive: 79.4 µM [inhibitor, single point]	
Cc1cc(NC(=O)Cn2c(=O)c3c(ncn3CCC(C)C)n(Cc3ccccc3)c2=O)no1	inconclusive: 100 µM [fluorescent, side channel, partial curve, poor fit]	
O=C(Nc1cccc(-c2nn[nH]n2)c1)c1ccc(Br)s1		inactive: 17.4%
O=C(c1ccc(F)cc1)C1CCN(C(=S)NCC2CCCO2)CC1 (stereo unspecified)	inconclusive: 1.58 µM [inhibitor, partial curve, poor fit]	
CSc1nc2nc(C(F)(F)F)cc(-c3ccccc3)n2n1		inactive: 17.3%
COc1ccc(C)cc1Nc1n[n+](-c2ccccc2)c(-c2cc(OC)c(OC)cc2Br)s1	inconclusive: 44.7 µM [quencher, side channel, partial curve]	
Clc1cccc(Cl)c1CO/N=C/c1c(-c2ccccc2)nc2n1CCS2		inactive: -0.39%
O=C(CN1C(=O)/C(=C/c2cccc(Br)c2)SC1=S)NC1=NCCS1	inconclusive: 31.6 µM [fluorescent, side channel, partial curve]	
O=S1(=O)N=C(N(CCO)/N=C/C=C/c2ccccc2)c2ccccc21	inconclusive: 56.2 µM [inhibitor, partial curve, poor fit]	
CCCCCN(C(=O)CCC(=O)OCC(=O)N1CCCCC1C)c1c(N)n(CCCC)c(=O)[nH]c1=O (stereo unspecified)	inconclusive: 31.6 µM [fluorescent, side channel, single point]	
Cc1cc(C(=O)Nc2cccc(C)c2C)n(-c2ccccc2)n1	inconclusive: 35.5 µM [inhibitor, single point]	
COc1ccc(NC(=O)/C(C#N)=C\c2ccc(N3CCOCC3)o2)cc1	inconclusive: 28.2 µM [fluorescent, side channel, partial curve]	

Entries of single compounds, looked up by structure.
CC(O)CNc1nc2c(c(=O)n(Cc3ccc(Cl)c(Cl)c3)c(=O)n2C)n1C (stereo unspecified) as listed: activity change, negative = inhibition: inactive: -0.987%
O=C(NC1CCN(Cc2ccccc2)CC1)c1cccc(OC(F)F)c1 as listed: Potency: inconclusive: 70.8 µM [fluorescent, side channel, single point]
